In US20170349886A1 (VEGENICS, published 2017):
These are yes or no findings as the source states them, for the method shown. Some entries that bind do so weakly or less than the wild type.

Experiments:
[1] = target: T1, Human VEGF-D (human, UniProt O43915 93-201, limits assumed); assay: SPR
T1 sequence (looked up): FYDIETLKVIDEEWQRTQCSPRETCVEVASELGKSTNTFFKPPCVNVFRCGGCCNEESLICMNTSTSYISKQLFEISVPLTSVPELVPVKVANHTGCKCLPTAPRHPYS

[2] = target: T1, Human VEGF-D; assay: ELISA; ligand coated at 2 µg/mL, trap 0 to 10 µg/mL, anti-human IgG-HRP
[3] = target: T1, Human VEGF-D; assay: ELISA: VEGF-D (2 µg/mL) coated on the plate, VGX-300 titrated, detected with rabbit anti-human IgG-HRP and TMB
[4] = target: T1, Human VEGF-D; assay: ELISA (FIG. 2A and 2B)

Measured: binding

B1: VGX-300 (Fc fusion)
chain: YSMTPPTLNITEESHVIDTGDSLSISCRGQHPLEWAWPGAQEAPATGDKDSEDTGVVRDCEGTDARPYCKVLLLHEVHANDTGSYVCYYKYIKARIEGTTAASSYVFVRDFEQPFINKPDTLLVNRKDAMWVPCLVSIPGLNVTLRSQSSVLWPDGQEVVWDDRRGMLVSTPLLHDALYLQCETTWGDQDFLSNPFLVHITGNELYDIQLLPRKSLELLVGEKLVLNCTVWAEFNSGVTFDWDYPGKQAERGKWVPERRSQQTHTELSSILTIHNVSQHDLGSYVCKANNGIQRFRESTEVIVHE
notes: only Ig-like domains I-III were in the molecule; Produced by transient expression in CHO or HEK cells; also called Parent; VGX-300 parent; not shown: Fc region gamma chain (detected with anti-human IgG)
binds: all assays above
